This is one part of the list. These are further read-outs of the screen, such as a control signal, another cell line or another target. No call is given for them. Most of these compounds were active or inconclusive in the main read-out, so they are no random draw. The note in brackets gives the kind of curve behind each potency; many fits are weak.
Test: qHTS Assay for Modulators of Lamin A Splicing
Conditions: HeLa LMNA splicing GFP/RFP minigene ratio, 48 h
Outline: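 S3 HeLa cells stably expressing lamin A-EGFP splicing minigene plus DsRed2, 600 cells/well, 48 h compound exposure at 37C. Laser-scanning cytometry; analysed as GFP (500-530 nm)/RFP (575-640 nm) total intensity ratio; 0.5% DMSO vehicle.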

[1] = measured here: GFP splicing reporter channel
[2] = measured here: RFP viability control channel

Compound: CCCCOc1ncnc2c1[nH]c1ccccc12
- AC50 [1]: 1.78 µM [rising, single point]

Compound: Cc1ccc(C(=O)N2CCN(c3ccccn3)CC2)cc1[N+](=O)[O-]
- AC50 [1]: 0.00501 µM [falling, full curve]
- AC50 [2]: 0.00447 µM [falling, full curve, poor fit]

Compound: Cc1[nH]c2ccccc2c1N=Nc1c(C)n(C)n(-c2ccccc2)c1=O
- AC50 [2]: 0.0112 µM [falling, full curve, poor fit]

Compound: COc1cccc(NC(=O)CSc2nc3ccccc3c(=O)n2Cc2cccs2)c1
- AC50 [2]: 11.2 µM [rising, partial curve]

Compound: COC(=O)COC(=O)c1ccccc1NC(=O)c1ccccc1
- AC50 [2]: 0.562 µM [falling, single point]

Compound: COC(=O)CSc1nnc(-c2ccccc2O)n1-c1ccc(C)cc1
- AC50 [1]: 0.447 µM [rising, full curve, poor fit]
- AC50 [2]: 0.447 µM [rising, full curve]

Compound: CCOc1ccc2nc(SCC(=O)NC(=O)NCc3ccco3)sc2c1
- AC50 [1]: 35.5 µM [rising, single point]
- AC50 [2]: 35.5 µM [rising, single point]

Compound: CCOc1ccccc1CNS(=O)(=O)c1ccc2[nH]c(=O)sc2c1
- AC50 [2]: 12.6 µM [rising, single point]

Compound: Cc1nc(-c2ccccc2)sc1C(=O)/C=C/c1ccccc1
- AC50 [1]: 11.2 µM [falling, partial curve, poor fit]
- AC50 [2]: 14.1 µM [falling, partial curve]

Compound: COc1ccc(S(=O)(=O)N2CCC(C(=O)N3CCc4ccccc4C3)CC2)cc1
- AC50 [2]: 10 µM [rising, partial curve]

Compound: Cc1cccc(CSc2cccc3cccnc23)c1
- AC50 [1]: 8.91 µM [falling, partial curve, poor fit]
- AC50 [2]: 12.6 µM [falling, partial curve]

Compound: COc1ccc2c(c1)CC/C(=C\c1ccc(OC)c(Cn3cccn3)c1)C2=O
- AC50 [1]: 14.1 µM [falling, single point]
- AC50 [2]: 22.4 µM [falling, single point]

Compound: Cc1cc(C)cc(C(=O)NCC(c2ccc(N(C)C)cc2)N2CCCC2)c1 (centres undefined)
- AC50 [1]: 20 µM [falling, partial curve, poor fit]

Compound: Clc1ccc(-c2csc(N/N=C/c3cccnc3)n2)c(Cl)c1
- AC50 [2]: 17.8 µM [rising, single point]

Compound: COc1ccc2c(C)cc(SCC(=O)Nc3ccc(Cl)cn3)nc2c1
- AC50 [1]: 0.178 µM [rising, partial curve]
- AC50 [2]: 0.141 µM [rising, full curve]

Compound: CC(C)(C)NC(=O)COC(=O)CCC(=O)c1ccc(F)cc1
- AC50 [1]: 22.4 µM [falling, partial curve, poor fit]
- AC50 [2]: 14.1 µM [falling, partial curve, poor fit]

Compound: Cc1cccc(Nc2nc(N)c([N+](=O)[O-])c(N3CCCC(C)C3)n2)c1 (centres undefined)
- AC50 [1]: 5.62 µM [falling, single point]
- AC50 [2]: 2.82 µM [falling, single point]

Compound: CCNC(=S)N/N=C/c1cccc(C)c1
- AC50 [2]: 31.6 µM [rising, single point]

Compound: CCc1ccc(/C=C/C(=O)c2c(C)cc(C)[nH]c2=O)cc1
- AC50 [1]: 11.2 µM [falling, partial curve]
- AC50 [2]: 35.5 µM [rising, single point]

Compound: CCOc1cc(C)nc(Oc2ccc(=O)[nH]n2)n1
- AC50 [2]: 7.94 µM [falling, single point]

Compound: N#C/C(=C\Nc1ccccc1SC(F)(F)F)c1nc(-c2ccc(Cl)cc2)cs1
- AC50 [2]: 31.6 µM [rising, single point]

Compound: COc1ccc(Br)cc1CNc1ccc(S(N)(=O)=O)cc1
- AC50 [1]: 31.6 µM [rising, single point]
- AC50 [2]: 35.5 µM [rising, single point]

Compound: Cc1ccc(S(=O)(=O)NCc2nc3ccccc3c(=O)n2N)cc1
- AC50 [2]: 20 µM [rising, single point]

Compound: C=CCSc1n[nH]c(-c2ccc(OCCCC)cc2)n1
- AC50 [2]: 12.6 µM [rising, single point]

Compound: CCC(C)n1c(SCc2ccccc2)nc2ccsc2c1=O (centres undefined)
- AC50 [1]: 35.5 µM [rising, single point]
- AC50 [2]: 35.5 µM [rising, single point]

Compound: CC(=O)Oc1ccc(C(=O)Nc2cccc(C(=O)NC(C)(C)C)c2)cc1
- AC50 [1]: 1.26 µM [rising, single point]
- AC50 [2]: 1.26 µM [rising, single point]

Compound: Cc1cc(C)nc(N2CCC(C(=O)NCCc3ccc(Cl)cc3)CC2)n1
- AC50 [1]: 1.78 µM [falling, full curve]
- AC50 [2]: 7.08 µM [falling, full curve, poor fit]

Compound: COc1cc(NC(=O)Cc2nn(C)c(=O)c3ccccc23)cc(OC)c1
- AC50 [1]: 2.24 µM [rising, partial curve, poor fit]
- AC50 [2]: 2.82 µM [rising, partial curve, poor fit]

Compound: CCCOc1ncnc2c1[nH]c1ccccc12
- AC50 [1]: 2.82 µM [rising, single point]
- AC50 [2]: 7.94 µM [rising, partial curve]

Compound: CCCNC(=O)NS(=O)(=O)c1ccc(Cl)cc1
- AC50 [2]: 0.00501 µM [falling, full curve]

Compound: O=C(c1ccccc1)c1c2c(cc3sc4ccccc4[n+]13)-c1cccc3cccc-2c13
- AC50 [1]: 1.12 µM [rising, partial curve]
- AC50 [2]: 11.2 µM [rising, partial curve]

Compound: Cc1ccc(-n2c(C)nc3c(cnn3-c3ccc(C)c(C)c3)c2=O)cc1C
- AC50 [1]: 17.8 µM [rising, single point]
- AC50 [2]: 35.5 µM [rising, single point]

Compound: COc1ccc(N2C(=O)C3C(C2=O)C2C=CC3C23CC3)c(OC)c1 (centres undefined)
- AC50 [2]: 31.6 µM [rising, single point]

Compound: Cc1cc(C)n2c(Br)c(CSc3nc4ccccc4o3)nc2n1
- AC50 [1]: 6.31 µM [rising, partial curve]
- AC50 [2]: 7.94 µM [rising, partial curve, poor fit]

Compound: CCOC(=O)CC1C(=O)NCCN1Cc1ccc(OC)c(OC)c1 (centres undefined)
- AC50 [1]: 1 µM [falling, single point]
- AC50 [2]: 5.62 µM [falling, single point]

Compound: Cc1ccc2c(c1)N(C(=O)CCC(=O)N1CCc3ccccc3C1)CCO2
- AC50 [1]: 15.8 µM [rising, single point]

Compound: COc1cc(C=O)ccc1OCCOCCOc1cc(C)ccc1Cl
- AC50 [2]: 14.1 µM [rising, single point]

Compound: CC(C)C(NC(=O)c1ccccc1Cl)C(=O)OCc1nc2scc(-c3ccccc3Cl)c2c(=O)[nH]1 (centres undefined)
- AC50 [1]: 0.178 µM [rising, full curve]
- AC50 [2]: 4.47 µM [rising, partial curve]

Compound: Cc1nc2ccccn2c1C(=O)OCC#N
- AC50 [1]: 0.158 µM [rising, full curve, poor fit]

Compound: Nc1ccccc1Nc1ccccc1
- AC50 [1]: 15.8 µM [falling, single point]

Compound: CCOC(=O)c1cc([N+](=O)[O-])c([N+](=O)[O-])cc1NC(C)=O
- AC50 [2]: 22.4 µM [falling, partial curve, poor fit]

Compound: Cc1ccc(C)c(NC(=O)Cn2cc(S(=O)(=O)Cc3cccc(Cl)c3)c3ccccc32)c1
- AC50 [2]: 35.5 µM [falling, single point]

Compound: N#Cc1ccsc1NC(=O)COc1ccc(-c2nnco2)cc1
- AC50 [2]: 17.8 µM [rising, partial curve, poor fit]

Compound: CCOC(=O)c1cncc(C#CCOC(=O)Nc2ccc(OC(F)(F)F)cc2)c1
- AC50 [1]: 0.158 µM [falling, full curve, poor fit]
- AC50 [2]: 0.141 µM [falling, full curve, poor fit]

Compound: O=C(CSc1nccc(-c2cccs2)n1)Nc1cccc(Cl)c1Cl
- AC50 [1]: 35.5 µM [falling, single point]
- AC50 [2]: 25.1 µM [falling, partial curve, poor fit]

Compound: Cc1ccc2nc3sc(C(=O)N4CCCc5ccccc54)c(N)c3cc2c1
- AC50 [2]: 35.5 µM [rising, partial curve]

Compound: CC(=O)O[C@]1(C(C)=O)CC[C@H]2[C@@H]3C=C(Cl)C4=CC(=O)CC[C@]4(C)[C@H]3CC[C@@]21C
- AC50 [1]: 1.41 µM [falling, full curve, poor fit]

Compound: COc1ccc(C(=O)C(C)N(C(=O)c2ccc(Cl)cc2Cl)N2C(=O)C3C4C=CC(C4)C3C2=O)cc1 (centres undefined)
- AC50 [1]: 11.2 µM [rising, single point]

Compound: O=C(Nc1nnc(-c2cccnc2)o1)c1cccc([N+](=O)[O-])c1
- AC50 [1]: 1.26 µM [rising, full curve, poor fit]

Compound: COC(=O)c1ccc(NC(=O)C23CC4CC(C2)CC(n2cnc(Cl)n2)(C4)C3)cc1
- AC50 [2]: 20 µM [rising, single point]

Compound: Cc1nn(-c2ccccc2)c(Cl)c1/C=N/Nc1ccc(Cl)c(C(=O)O)c1
- AC50 [2]: 3.55 µM [rising, full curve, poor fit]

Compound: CC(=O)c1cc(-c2ccccc2)n(CC(=O)Nc2ccc(C)c(C)c2)c1C
- AC50 [1]: 35.5 µM [falling, single point]
- AC50 [2]: 35.5 µM [falling, single point]

Compound: Cn1ccnc1SCC(=O)Nc1cccc(S(=O)(=O)N2CCCCC2)c1
- AC50 [1]: 20 µM [falling, partial curve]
- AC50 [2]: 12.6 µM [falling, partial curve, poor fit]

Compound: COc1ccccc1-c1nc(SCC(=O)NCc2ccccc2)c2c(=O)n(C)c(=O)n(C)c2n1
- AC50 [1]: 0.178 µM [rising, full curve, poor fit]

Source: PubChem BioAssay AID1487 (National Center for Advancing Translational Sciences (NCATS), 2009)
